Results deposited as PubChem BioAssay AID652272 (Drosophila RNAi Screening Center, 2013)
In all, the deposit lists about 21,000 reagents; this is an unselected part of those with a known target gene and a result. In the full data, 503 (2.4%) are marked active. 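Raw plate light values, not normalised; calls rest on replicate z-scores that were not deposited; hits include reporter decreases as well as increases.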 A number with no mark means an inactive call. No sequences are given here. The record does not give: the amount of reagent, the time to read-out.

Aim: 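Genes whose knock-down decreases or increases Hedgehog reporter output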 (primary screen)
Cell system: Drosophila clone 8 (Cl8) cells
Knock-down reagent: long dsRNA against Drosophila genes
Measured: 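Firefly light from a Hedgehog-responsive ptc promoter reporter and Renilla reference light, both read on a plate reader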
Scale: firefly Hh reporter signal: higher = more ptc reporter light; Renilla reference signal: higher = more Renilla control light
Hit rule: 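Called a hit if the two-replicate mean z-score lies below -2 or above +3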
Meaning of the calls: active = hit: reporter lowered or raised; inactive = not a hit

With knock-down of Cf2 [DRSC00744], the record shows firefly Hh reporter signal, replicate 1 = 55640; firefly Hh reporter signal, replicate 2 = 20722; Renilla reference signal, replicate 1 = 1846; Renilla reference signal, replicate 2 = 2868.
With knock-down of MED4 [DRSC11014], the screen gave firefly Hh reporter signal, replicate 1 = 92333; firefly Hh reporter signal, replicate 2 = 46770; Renilla reference signal, replicate 1 = 3723; Renilla reference signal, replicate 2 = 2070.
With knock-down of Duba [DRSC10582] the results were firefly Hh reporter signal, replicate 1 = 76573; firefly Hh reporter signal, replicate 2 = 64586; Renilla reference signal, replicate 1 = 3191; Renilla reference signal, replicate 2 = 3047.
After knock-down of MKP-4 [DRSC19567] the results were firefly Hh reporter signal, replicate 1 = 1.44e5; firefly Hh reporter signal, replicate 2 = 1.63e5; Renilla reference signal, replicate 1 = 3661; Renilla reference signal, replicate 2 = 3760.
Knock-down of CG6724 [DRSC02983] came out at: firefly Hh reporter signal, replicate 1 = 87024; firefly Hh reporter signal, replicate 2 = 51117; Renilla reference signal, replicate 1 = 3143; Renilla reference signal, replicate 2 = 6712.
COX2 (retired record) [DRSC21276] showed firefly Hh reporter signal, replicate 1 = 71392; firefly Hh reporter signal, replicate 2 = 2.33e5; Renilla reference signal, replicate 1 = 1672; Renilla reference signal, replicate 2 = 10009.
After knock-down of CG14207 [DRSC19562] the results were firefly Hh reporter signal, replicate 1 = 1.23e5; firefly Hh reporter signal, replicate 2 = 1.19e5; Renilla reference signal, replicate 1 = 2736; Renilla reference signal, replicate 2 = 3364.
With knock-down of CG14207 [DRSC19563] the results were firefly Hh reporter signal, replicate 1 = 80843; firefly Hh reporter signal, replicate 2 = 2.39e5; Renilla reference signal, replicate 1 = 3096; Renilla reference signal, replicate 2 = 10553.
Depletion of DIP-gamma [DRSC14873] gave: firefly Hh reporter signal, replicate 1 = 93251; firefly Hh reporter signal, replicate 2 = 1.85e5; Renilla reference signal, replicate 1 = 1528; Renilla reference signal, replicate 2 = 4326.
After knock-down of 5-HT1B [DRSC05031], the record shows firefly Hh reporter signal, replicate 1 = 1.51e5; firefly Hh reporter signal, replicate 2 = 42773; Renilla reference signal, replicate 1 = 4295; Renilla reference signal, replicate 2 = 470.
Silencing of 5-HT1B [DRSC05769] resulted in: firefly Hh reporter signal, replicate 1 = 12858 (active); firefly Hh reporter signal, replicate 2 = 22082; Renilla reference signal, replicate 1 = 731; Renilla reference signal, replicate 2 = 1369.
Against CG10467 [DRSC09728], the values are firefly Hh reporter signal, replicate 1 = 52694; firefly Hh reporter signal, replicate 2 = 44880; Renilla reference signal, replicate 1 = 4945; Renilla reference signal, replicate 2 = 3362.
For CG6013 [DRSC15947] the deposit lists firefly Hh reporter signal, replicate 1 = 1.44e5; firefly Hh reporter signal, replicate 2 = 1.04e5; Renilla reference signal, replicate 1 = 5908; Renilla reference signal, replicate 2 = 4088.
With knock-down of CG13982 [DRSC02314], the record shows firefly Hh reporter signal, replicate 1 = 66153; firefly Hh reporter signal, replicate 2 = 70490; Renilla reference signal, replicate 1 = 1203; Renilla reference signal, replicate 2 = 6400.

As entered above:
MKP-4 [DRSC19567], firefly Hh reporter signal, replicate 1 → 1.44e5
CG6013 [DRSC15947], firefly Hh reporter signal, replicate 1 → 1.44e5
